Measured values from patent US20130071892A1, “PROCESS FOR PRODUCTION OF POLYHYDROXYALKANOIC ACID USING GENETICALLY MODIFIED MICROORGANISM HAVING ENOYL-CoA HYDRATASE GENE INTRODUCED THEREIN” (TOKYO INSTITUTE OF TECHNOLOGY, priority 2010, published 2013).
At least one read-out could not be matched to a standard name with certainty.

B1: PhaJ1: purified His-tagged recombinant protein expressed in E. coli from phaJ1 (SEQ ID NO: 2) of C. necator; (R)-form-specific enoyl-CoA hydratase (protein)
chain: MRTIASLEELEGLQGQEVAVSDWIEVTQQQVNQFADATGDHQWIHIDVERAKKESPYGGPIAHGFLTLSLLPKFMHNALHMPSKIGVNYGLNRVRFTAPVPVGSKLRARIKLLKVERLDPLPKSPELVGAQSTWEVTVEREGSDRPVCVAESITRRYG
modifications: His tag; Cupriavidus necator; Cupriavidus necator strain H16 (R)-form- specific enoyl-CoA hydratase (R-hydratase, phaJ1), H16_A1070
B2: PhaJ2: purified His-tagged recombinant protein expressed in E. coli from phaJ2 (SEQ ID NO: 3) of C. necator; (R)-form-specific enoyl-CoA hydratase (protein)
chain: MKTYENIADLQPLVGEVIGTSEWLALDQARINTFADATGDHQWIHVDVERAKNGPFGAPIAHGFLTLSLLPAFTHSAYRIRNSSTGVNYGLDKVRFPAPVPVDSLLRAQFKLMSYEALENGGAQFKVEMMVERQGGSKPVCIAESILRRFP
modifications: His tag; Cupriavidus necator R-hydratase gene (phaJ2); Cupriavidus necator strain H16 (R)-form- specific enoyl-CoA hydratase (R-hydratase, phaJ2), H16_B0397

What was measured:
Type in all cases: biochemical
[1] = enoyl-CoA hydratase activity, crotonyl-CoA as substrate (absorbance at 263 nm, Lineweaver-Burk plot); conditions: substrate Crotonyl-CoA (C4)
[2] = enoyl-CoA hydratase activity, 2-hexenoyl-CoA as substrate (absorbance at 263 nm, Lineweaver-Burk plot); conditions: substrate 2-hexenoyl-CoA (C6)
[3] = enoyl-CoA hydratase activity, 2-octenoyl-CoA as substrate (absorbance at 263 nm, Lineweaver-Burk plot); conditions: substrate 2-oxtenoyl-CoA (C8)

Row | Molecule | Catalytic efficiency Vmax/Km [1] | Catalytic efficiency Vmax/Km [2] | Catalytic efficiency Vmax/Km [3]
1 | B1 | 8.5 × 150 U mg^−1M^−1 | 1.7 × 10^7 U mg^−1M^−1 | 2.8 × 10^7 U mg^−1M^−1
2 | B2 | 4.5 × 10^5 U mg^−1M^−1 | 3.1 × 10^7 U mg^−1M^−1 | 8.7 × 10^7 U mg^−1M^−1
